Primary screen of a compound library

Source: ChEMBL document CHEMBL3988442, “University of Dundee, Small-Polar-MMV Screening Library” (2021).

Values are the deposited “Percent Effect”, in %. The controls that fix the scale are not given in the record; negative values are as filed. Compounds were drawn at random from those tested, without regard to their results.

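Whole-cell growth test on Mycobacterium tuberculosis, read after 4 days in a medium based on cholesterol and the lipid DPPC; the read-out is not stated. Tested at 500 µM. Higher reads as more growth inhibition (inferred: compounds with an IC50 in retests scored well above the rest). Size under these conditions: about 18,000 compounds, about 900 of them at 50% or above in at least one test.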

* COc1cc(C(=O)Nc2nnc[nH]2)cc(Cl)c1OC : -3.916%
* C=C(C)CSCC(=O)NC1CCOCC1 : -4.887%
* CCSc1nnc(N2CCOCC2)n1C : 10.28%
* CN1CC2(CCN(CCCn3cccc3)CC2)OC1=O : -14.21%
* Cn1cc(Br)cc1C(=O)NCCC(O)C(F)(F)F (configuration not stated) : -6.141%
* COCCNCCn1cnc2c1c(=O)[nH]c(=O)n2C : -9.613%
* OCCOCCSc1n[nH]c(-c2cc(F)cc(F)c2)n1 : 32.26%
* CCN1Cc2ccccc2CC1C(N)=O (configuration not stated) : 3.237%
* CSc1ncc(C(=O)NC2CCN(C)C2)cn1 (configuration not stated) : 7.765%
* O=C(NCCc1ccccn1)C1CCC1 : 2.608%
* CCC(C)N1CCN(C(=O)c2cccs2)CC1 (configuration not stated) : -6.245%
* CCn1cnnc1CNc1ncccc1F : 9.125%
* Cc1cccc(N2CCN(C3CC3)CC2)n1 : -0.1766%
* CCc1nnsc1C(=O)NCc1csc(C)n1 : 11.39%
* CCc1ccc(CN2C[C@H](O)[C@@H](N3CCCC3)C2)nc1 : 11.46%
* O=c1[nH]nc(CNc2ccc(Br)cc2)[nH]1 : 14.16%
* CN(CCOc1ccc(Cl)cc1)C(=O)C(C)(C)CN : 65.96%
* Cc1cc(NC(=O)NC(C)C2CC2)n(C)n1 (configuration not stated) : 4.425%
* FC(F)CC1COCCN1 (configuration not stated) : 8.065%
* C[C@]1(O)CCN(c2nnc(-c3ccccc3)s2)C[C@@H]1O : 15.12%
* COc1ccccc1CC(=O)Nc1ncc(C(N)=O)s1 : 24.52%
* CCCC(=O)NC1CCN(CCC)CC1 : 8.988%
* N#Cc1ccnc(N2CCN(S(N)(=O)=O)CC2)c1 : 3.213%
* COc1cc(Cl)cc(CN(C)[C@H]2COC[C@@H]2O)c1OC : 8.008%
* COc1ccc(N(C)CCCO)cc1OC : 7.578%
* CN(C(=O)Cn1ccccc1=O)C1CCS(=O)(=O)C1 (configuration not stated) : -17.79%
* Cc1cc(CNC(=O)C2(C)CCN(C)CC2)n(C)n1 : -8.497%
* CCNC(=O)c1cccn1CC : 11.12%
* Nc1cncc(-c2nccs2)c1 : -20.68%
* COC(=O)N1CCC(NC2CCOCC2)C1 (configuration not stated) : -6.338%
* CCOc1cc(CN2CCC(N)CC2)ccc1O : -7.639%
* COc1ccnc(CN(CCO)Cc2nccn2C)c1 : 39.52%
* CCC(C)(O)CCN (configuration not stated) : -15.66%
* Cc1[nH]c(C(C)(C)N)nc(=O)c1C : -3.355%
* CCN(CC)CC(=O)N(C)Cc1ccncc1 : 5.602%
* Cn1cc(C(C)(O)CNc2cccc(F)c2C#N)cn1 (configuration not stated) : 6.229%
* CC(C)n1nccc1NC(=O)CNC(=O)c1cccs1 : -10.33%
* Cc1nc(CNC(=O)CC2=CCCCC2)no1 : 51.82%
* COCC(=O)NC1CCN(c2ccccc2)C1=O (configuration not stated) : 3.447%
* O=C(Nc1cncc(Br)c1O)c1cncc(F)c1 : -4.813%
* O=C(N1CCC1)C1(c2ccccc2)CC1 : 18.5%
* O=C(CO)NC1CCN(Cc2cc(Cl)cc(Cl)c2)CC1 : -0.05815%
* CCn1ccnc1C1CCN(C(=O)CCOC)CC1 : -11.81%
* Nc1ccc(CNc2nc(C3CC3)ns2)cn1 : 30.65%
* CC(=O)c1c(C)cc(C)[nH]c1=O : -4.282%
* CN(C)S(=O)(=O)N1CC(=O)NCC1(C)C : -2.442%
* CCCC(NC(C)=O)C(=O)N(C)Cc1cc[nH]n1 (configuration not stated) : 0.05683%
* O=C(CNc1ccccc1OC(F)F)N1CCNC1=O : 16.49%
* CC(OC(=O)CNC(=O)C1CC1)C1CC1 (configuration not stated) : 10.58%
* CNc1snc(C)c1C(=O)NCCc1ccccn1 : 8.864%
* COCCN(Cc1ccco1)C(=O)c1cnc(C)cn1 : 0.7112%
* CC1(C)OC(=O)N(CCC#N)C1(C)O (configuration not stated) : -1.01%
* O=C(NC1CC1)N1CCN(c2ncccc2Cl)CC1 : 30.42%
* COCCN(Cc1ccco1)S(=O)(=O)CCOC : -17.95%
* Cc1ccc(C#N)cc1NC(=O)N1CC(N(C)C)C1 : 8.304%
* Cc1ccc(CN(C)C(=O)CSc2nncn2C)o1 : -2.615%
* Cc1ccc(S(=O)(=O)NC(CN)C2CC2)c(F)c1 (configuration not stated) : 13.21%
* Cc1noc(C)c1CNCc1c(C)nn(CCO)c1C : 1.821%
* COc1cc(NCC2(N(C)C)CCSC2)ncn1 (configuration not stated) : 2.668%
* CN(C)c1nnc(SCCCC#N)s1 : -1.797%

The last 5 entries again:

compound	percent effect
Cc1ccc(CN(C)C(=O)CSc2nncn2C)o1	-2.615%
Cc1ccc(S(=O)(=O)NC(CN)C2CC2)c(F)c1 (configuration not stated)	13.21%
Cc1noc(C)c1CNCc1c(C)nn(CCO)c1C	1.821%
COc1cc(NCC2(N(C)C)CCSC2)ncn1 (configuration not stated)	2.668%
CN(C)c1nnc(SCCCC#N)s1	-1.797%